Measured values reported in US20220074941A1, “HSP90 COMBINATION THERAPY” (Sloan-Kettering Institute for Cancer Research, priority 2011, published 2022).
No constants are given. Whether binding was seen depends on the method and setting. Binding can be weak; no strength is given.

Chains of the proteins cited; added tags and fusions are not shown. Lines headed by an entry give the natural chain unless they say otherwise; changes in a name come on top.
UniProt Q86X55: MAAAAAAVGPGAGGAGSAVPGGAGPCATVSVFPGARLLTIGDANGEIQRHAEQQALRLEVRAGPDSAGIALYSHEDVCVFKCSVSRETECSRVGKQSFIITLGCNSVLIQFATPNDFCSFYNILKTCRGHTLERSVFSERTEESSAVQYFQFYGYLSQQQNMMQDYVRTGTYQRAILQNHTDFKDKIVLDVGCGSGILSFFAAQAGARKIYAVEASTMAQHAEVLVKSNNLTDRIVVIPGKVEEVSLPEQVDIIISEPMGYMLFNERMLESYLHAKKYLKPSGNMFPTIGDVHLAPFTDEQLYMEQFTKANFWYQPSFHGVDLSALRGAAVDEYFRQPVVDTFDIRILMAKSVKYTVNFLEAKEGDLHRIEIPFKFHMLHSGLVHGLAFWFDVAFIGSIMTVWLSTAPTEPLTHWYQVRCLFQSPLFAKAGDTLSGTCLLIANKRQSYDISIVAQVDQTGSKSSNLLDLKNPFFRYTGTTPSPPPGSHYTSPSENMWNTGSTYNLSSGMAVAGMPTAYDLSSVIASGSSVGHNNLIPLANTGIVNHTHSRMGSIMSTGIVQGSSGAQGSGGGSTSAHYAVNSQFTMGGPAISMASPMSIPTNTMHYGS

Target: histone-arginine methyltransferase CARM1 (human) (UniProt Q86X55)
Assay: sequential PU-H71-bead chemical precipitation from K562 extract, CML cell lines and primary CML cells, Western blot

binding: binds
Substance: heat shock protein 90 (Hsp90), endogenous, in human cancer and normal cell extracts (from UniProt P07900 2-732)
